Experimental data reported in PubChem BioAssay AID624297 (National Center for Advancing Translational Sciences (NCATS), 2012).
Screen size: about 340,000 compounds; about 6,200 (1.8%) were called active. Inconclusive results, whose numbers are uncertain, are shown with a selection of clear calls. The call rests on the fitted dose curve; in most records, active means well fitted activation curve with a large enough effect; inconclusive means small, poorly fitted or top-dose-only effect; inactive means no such curve, though single readings can be large or run the other way. Where the call is inconclusive, the potency comes from a doubtful curve fit.

Assay: A quantitative high throughput screen for small molecules that induce DNA re-replication in SW480 colon adenocarcinoma cells. Further: nearly all actives have a fitted effect of over 55% in size. On re-replication activation: % of control where 0% means no effect.
Details: Hoechst DNA content imaging, 48 h; re-replication activation: at 46.1 µM (top of the series) unless noted
In short: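 First, 250 cells per well were seeded. Next, compound or vehicle (23 nL) was pinned in, plates sat 48 hr at 37 C. Finally Hoechst was added for 40 min before fluorescence scanning.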
Potency means the concentration at half of the fitted maximal effect.

SMILES	Potency	re-replication activation
CC(=O)NC(Cc1ccc(C)cc1)C(=O)NC1CCN(S(=O)(=O)c2ccccc2)CC1 (centres undefined)	inconclusive: 29.1 µM [activator, single point]	–
Cc1cccc(NC(=O)CSc2nc3c([nH]c4ccccc43)c(=O)n2C)c1	inconclusive: 23.1 µM [activator, partial curve, poor fit]	–
CCn1nc(NC(=O)c2ccco2)c2cc3ccccc3nc21	inconclusive: 18.4 µM [activator, single point]	–
O=C(Nc1ccnn1C1CCN(Cc2ccc3nonc3c2)CC1)c1cccc(F)c1	inconclusive: 29.1 µM [activator, partial curve, poor fit]	–
CC#CCOC(=O)c1c(C)nc2sc3c(c2c1N)CCC(O)C3 (centres undefined)	–	inactive: -55%
CCN(CC)CCNC(=O)c1ccc2c(c1NCCO)C(=O)c1ccccc1C2=O	inconclusive: 0.58 µM [activator, full curve, poor fit]	–
O=c1[nH]c(-c2ccccn2)nc2sc(-c3ccccc3)cc12	active: 6.51 µM	–
Cc1ccc(-c2nn3c(C)nnc3c3ccccc23)cc1S(=O)(=O)NC(C)c1ccccc1 (centres undefined)	inconclusive: 6.51 µM [activator, single point]	–
COc1cccc(OCCOc2ccccc2OC(C)C)c1	inconclusive: 14.6 µM [activator, partial curve, poor fit]	–
COc1ccc2c(c1OC)C(C1c3c(cc4c(c3OC)OCO4)CCN1C)OC2=O (centres undefined)	inconclusive: 29.1 µM [activator, single point]	–
COc1cc2nc(N(CCCN(C)C)C(=O)c3ccc(S(=O)(=O)N4CCc5ccccc54)cc3)sc2cc1OC	inconclusive: 14.6 µM [activator, single point]	–
CCOC(=O)c1cc(C(=O)NN)c(C)nc1C	inconclusive: 16.4 µM [activator, partial curve, poor fit]	–
Cc1ccc(NC(=S)NNc2ncc(C(F)(F)F)cc2Cl)c(C)c1	–	inactive: 11.8%
O=C(NNC(=S)Nc1ccccc1)c1ccccc1[N+](=O)[O-]	–	inactive: 2.6%
CN(c1ccccc1)S(=O)(=O)c1ccc(NC(=O)COc2ccccc2)cc1	inconclusive: 29.1 µM [activator, single point]	–
CCCCC1=CC2=C(c3ccco3)C(=O)C(C)(OC(=O)c3ccc(OC)cc3)C(=O)C2=CN1CCOC (centres undefined)	inconclusive: 5.17 µM [activator, partial curve]	–
CCOC(=O)C1(CC2CCCCO2)CCN(Cc2cc3ccccc3[nH]2)CC1 (centres undefined)	inconclusive: 7.31 µM [activator, partial curve, poor fit]	–
CC(C)CC1NC(=O)N(CC(=O)Nc2ccc(OCc3ccccc3)cc2)C1=O (centres undefined)	inconclusive: 4.61 µM [activator, partial curve, poor fit]	–
CCCc1nnc(NC(=O)CCC(=O)N2CCN(c3ccccc3)CC2)s1	inconclusive: 32.6 µM [activator, single point]	–
C/C(=N/NC(=O)c1ccc(C)s1)c1cccc(NC(=O)COc2ccc(Cl)cc2Cl)c1	inconclusive: 29.1 µM [activator, single point]	–
O=C(/C=C/c1cccc([N+](=O)[O-])c1)Nc1cc(C(=O)O)cc(C(=O)O)c1	inconclusive: 3.26 µM [activator, partial curve, poor fit]	–
CC[C@@]1(C(=O)OC)N[C@H](CN(C)C(=O)Nc2ccc(C)cc2)[C@@H]2C(=O)N(C)C(=O)[C@@H]21	inconclusive: 6.51 µM [activator, single point]	–

SMILES	Potency	re-replication activation
O=C(N/N=C/c1ccccn1)c1cc(-c2ccccc2)nc2ccccc12	inconclusive: 0.103 µM [activator, full curve, poor fit]	–
Cc1cccnc1N(C(=O)Nc1cccc(Cl)c1)C1=NCC(C)(C)S1	–	inactive: 8.8%
CN(CC(=O)Nc1ccc(N2CCOCC2)cc1)C(=O)c1cc(F)c(F)cc1Cl	inconclusive: 29.1 µM [activator, single point]	–
COC(=O)c1sc2nc(-c3ccccc3)c3c(c2c1N)CCCC3	inconclusive: 11.6 µM [activator, partial curve, poor fit]	–
CCc1cc(=O)oc2c(C)c(O[C@@H]3O[C@H](CO)[C@@H](O)[C@H](O)[C@H]3O)ccc12	inconclusive: 16.4 µM [activator, partial curve, poor fit]	–
Cc1cc(C)c2[nH]c(=O)c(C(c3nnnn3CC3CCCO3)N3CCC(C)CC3)cc2c1 (centres undefined)	inconclusive: 23.1 µM [activator, partial curve, poor fit]	–
Cc1ccc(CNC(=S)N2CCOCC2)cc1	inconclusive: 1.64 µM [activator, partial curve]	–
Cc1nc2ccccn2c1C(=O)/C=C/c1ccc(F)cc1	inconclusive: 29.1 µM [activator, single point]	–
CC1CCN(CC2C(=O)O[C@@H]3C[C@@]4(C)CCC[C@H](C)C4=C[C@H]23)CC(C)(C)C1 (some centres undefined)	inconclusive: 25.9 µM [activator, single point]	–
CC[C@]12CCCN3CCc4c(n(c5ccccc45)C(=O)C1)[C@@H]32	active: 13 µM	–
C/C(Cc1ccccc1)=N\NC(=O)c1cccnc1	inconclusive: 25.9 µM [activator, partial curve, poor fit]	–
COC(=O)CNC(c1ccccc1)c1cc(Br)ccc1NC(=O)CCN1CCOCC1 (centres undefined)	inconclusive: 29.1 µM [activator, single point]	–
CCNc1nc(NC(C)C)nc(NC(C)(C)C)n1	–	inactive: -31.4%
CC(=O)c1ccccc1-c1csc2ncnc(Sc3nnnn3C)c12	inconclusive: 20.6 µM [activator, single point]	–
O=C1/C(=C/c2cccnc2)SC(=S)N1C1CCS(=O)(=O)C1 (centres undefined)	inconclusive: 20 µM [activator, single point]	–
N#C/C(=C\N1CCN(Cc2ccc3c(c2)OCO3)CC1)c1nc2ccccc2s1	inconclusive: 25.9 µM [activator, single point]	–
O=C(C1CCCCC1)N1CCN(S(=O)(=O)c2cccc([N+](=O)[O-])c2)CC1	inconclusive: 0.461 µM [activator, full curve, poor fit]	–
CCOC(=O)c1oc2ccccc2c1NC(=O)Cc1cccs1	–	inactive: -4.21%
Cc1ccccc1OCC(=O)NNC(=O)CSc1nc(N)cc(N)n1	inconclusive: 36.6 µM [activator, partial curve, poor fit]	–
O=C1C=CC(=O)c2c(O)c(CO)c(CO)c(O)c21	inconclusive: 10.3 µM [activator, partial curve, poor fit]	–
CCN(CC)CCNc1nc(SC)nc2sc3c(c12)CCN(C)C3	inconclusive: 20.6 µM [activator, single point]	–
CCCn1c(SCC(=O)NCCc2ccccc2)nnc1C(C)C	–	inactive: 1.12%

Three compounds picked at random from the list so far, as already listed:
SMILES	Potency	re-replication activation
CCc1cc(=O)oc2c(C)c(O[C@@H]3O[C@H](CO)[C@@H](O)[C@H](O)[C@H]3O)ccc12	inconclusive: 16.4 µM [activator, partial curve, poor fit]	–
Cc1cccnc1N(C(=O)Nc1cccc(Cl)c1)C1=NCC(C)(C)S1	–	inactive: 8.8%
COc1ccc2c(c1OC)C(C1c3c(cc4c(c3OC)OCO4)CCN1C)OC2=O (centres undefined)	inconclusive: 29.1 µM [activator, single point]	–

(next part)

SMILES	Potency	re-replication activation
C/C(=N\NC(=S)NC1CCCCC1)c1ccc(C#N)cc1	–	inactive: -3.32%
CCn1cc(C(=O)NCCC(C)C)c(=O)c2cc(F)c(N3CCN(C)CC3)cc21	–	inactive: -10.3%
O=C(c1ccccc1)c1ccc2nc(Nc3ccccc3)c3nncn3c2c1	inconclusive: 16.4 µM [activator, single point]	–
CC1(c2ccccc2)O[C@@H]2C[C@H]3[C@@H]4CCC5=CC(=O)C=C[C@]5(C)[C@@]4(F)[C@@H](O)C[C@]3(C)[C@]2(C(=O)CO)O1 (some centres undefined)	inconclusive: 29.1 µM [activator, single point]	–
COc1cc2ccccc2cc1C(=O)Nc1cc(C)ccn1	inconclusive: 29.1 µM [activator, single point]	–
CCN(CC)S(=O)(=O)c1ccc(/C=C/C(=O)Nc2ccc(N3CCOCC3)cc2)cc1	inconclusive: 2.31 µM [activator, full curve]	–
O=S(=O)(Nc1ccc2oc(-c3ccccc3)nc2c1)c1ccccc1	inconclusive: 32.6 µM [activator, partial curve, poor fit]	–
CCN(CC)c1ccc2cc(C#N)c(=O)oc2c1	–	inactive: 1.14%
COc1ccc(C2CC(=O)c3sc(NC(C)=O)nc3C2)cc1 (centres undefined)	inconclusive: 29.1 µM [activator, partial curve, poor fit]	–
CC(C)C(=O)NCCCc1ccccc1	–	inactive: -6.01%
COC(=O)C(C(=O)Nc1cccc(Cl)c1C)C1CCCC1 (centres undefined)	inconclusive: 18.4 µM [activator, single point]	–
C=CCOc1cccc(C2C(C(=O)c3cc4ccccc4o3)=C(O)C(=O)N2c2cc(C)on2)c1 (centres undefined)	inconclusive: 10.3 µM [activator, single point]	–
Cc1cc(C(=O)NNC(=O)c2c(-c3c(Cl)cccc3Cl)noc2C)no1	–	inactive: -8.56%
COc1cc(OC)c2c(-c3cccc(-c4ccc(OC)c(OC)c4)c3)cc(=O)oc2c1	active: 2.06 µM	–
Cc1ccc(NC(=O)c2sc3nc(N)c(C#N)cc3c2N)cc1	inconclusive: 0.291 µM [activator, full curve, poor fit]	–
CC1=CC(=O)C=C(C)C1=NOC(=O)/C=C\c1ccccc1	active: 5.8 µM	–
CCN(CC)c1ccc2cc(C(=O)NNC(=O)c3ccc(S(=O)(=O)N4CCCCC4)cc3)c(=O)oc2c1	active: 2.91 µM	–
CCOc1ccc(N=Nc2ccc(O)c3ncccc23)cc1	inconclusive: 0.651 µM [activator, full curve, poor fit]	–
Cc1ccc2nc(C3CCCN3Cc3nc(CCC(C)C)no3)[nH]c2c1 (centres undefined)	–	inactive: -3.98%
COCCCNC(=O)c1cc2c(=O)n(C)c3ccccc3c2n1C	inconclusive: 29.1 µM [activator, single point]	–
